Here are results for 7 molecules from article PMC10729982.

Sequences of proteins named here, by UniProt entry; tags and fusion partners are left off. A change or cut given only in a name is not applied to a line headed by its entry.
UniProt Q27309: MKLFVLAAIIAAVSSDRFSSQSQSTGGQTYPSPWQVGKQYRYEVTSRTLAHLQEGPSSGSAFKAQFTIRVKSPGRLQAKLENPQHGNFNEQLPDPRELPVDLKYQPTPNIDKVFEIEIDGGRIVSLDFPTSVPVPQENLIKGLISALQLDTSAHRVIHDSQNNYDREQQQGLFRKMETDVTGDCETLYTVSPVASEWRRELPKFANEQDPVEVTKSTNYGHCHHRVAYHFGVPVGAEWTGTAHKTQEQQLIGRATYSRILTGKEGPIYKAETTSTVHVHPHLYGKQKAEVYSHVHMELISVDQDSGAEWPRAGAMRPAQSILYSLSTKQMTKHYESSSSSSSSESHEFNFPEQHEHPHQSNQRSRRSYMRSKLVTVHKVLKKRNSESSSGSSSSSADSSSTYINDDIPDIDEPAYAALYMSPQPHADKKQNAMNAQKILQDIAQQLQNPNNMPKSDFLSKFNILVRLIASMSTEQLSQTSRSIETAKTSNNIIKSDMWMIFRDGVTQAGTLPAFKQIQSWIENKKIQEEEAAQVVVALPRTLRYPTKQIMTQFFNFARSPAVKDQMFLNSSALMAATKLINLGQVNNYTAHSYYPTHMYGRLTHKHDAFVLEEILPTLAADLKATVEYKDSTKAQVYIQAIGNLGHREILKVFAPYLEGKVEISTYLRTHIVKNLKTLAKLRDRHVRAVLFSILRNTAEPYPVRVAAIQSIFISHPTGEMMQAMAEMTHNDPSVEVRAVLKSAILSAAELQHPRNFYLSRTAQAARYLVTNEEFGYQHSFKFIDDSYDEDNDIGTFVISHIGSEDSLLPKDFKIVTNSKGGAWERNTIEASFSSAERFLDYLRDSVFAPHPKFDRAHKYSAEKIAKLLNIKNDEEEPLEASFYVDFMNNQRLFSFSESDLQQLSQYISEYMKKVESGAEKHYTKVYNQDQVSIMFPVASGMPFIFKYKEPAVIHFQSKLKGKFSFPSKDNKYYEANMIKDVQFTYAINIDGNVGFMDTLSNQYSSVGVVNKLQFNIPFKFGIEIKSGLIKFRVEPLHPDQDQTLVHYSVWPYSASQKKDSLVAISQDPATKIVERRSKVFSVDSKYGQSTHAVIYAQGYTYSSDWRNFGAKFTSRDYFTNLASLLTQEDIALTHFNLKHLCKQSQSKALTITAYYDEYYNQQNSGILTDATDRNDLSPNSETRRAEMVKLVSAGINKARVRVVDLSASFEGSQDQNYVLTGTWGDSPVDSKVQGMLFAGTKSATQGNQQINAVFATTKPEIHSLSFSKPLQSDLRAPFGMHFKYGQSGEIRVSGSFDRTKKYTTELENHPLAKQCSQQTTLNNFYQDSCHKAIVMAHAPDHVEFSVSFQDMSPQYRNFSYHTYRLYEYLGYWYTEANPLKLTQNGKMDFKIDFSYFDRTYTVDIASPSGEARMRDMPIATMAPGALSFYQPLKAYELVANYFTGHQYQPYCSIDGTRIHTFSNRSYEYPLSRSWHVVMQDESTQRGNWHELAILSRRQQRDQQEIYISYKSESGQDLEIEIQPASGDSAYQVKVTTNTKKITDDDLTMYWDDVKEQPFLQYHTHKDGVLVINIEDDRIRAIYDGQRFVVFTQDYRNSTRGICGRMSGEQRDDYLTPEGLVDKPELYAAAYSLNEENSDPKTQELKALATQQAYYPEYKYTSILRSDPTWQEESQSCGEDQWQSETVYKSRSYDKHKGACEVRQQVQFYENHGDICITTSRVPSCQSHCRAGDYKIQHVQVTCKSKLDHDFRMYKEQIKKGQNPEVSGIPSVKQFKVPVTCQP

The target in test [1] is T1, SWP12, native on the surface of N. bombycis spores (N. bombycis (endogenous on spores)) (UniProt B3STP6).
T1 sequence: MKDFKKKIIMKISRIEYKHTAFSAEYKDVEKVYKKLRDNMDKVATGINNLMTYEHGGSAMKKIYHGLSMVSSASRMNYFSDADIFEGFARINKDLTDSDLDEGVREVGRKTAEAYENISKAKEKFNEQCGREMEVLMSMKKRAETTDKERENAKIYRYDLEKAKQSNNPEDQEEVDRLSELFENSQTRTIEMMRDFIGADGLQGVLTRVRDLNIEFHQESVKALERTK
The test can be described thus: binding to spores after antibody blocking, western blot; spores incubated with antibodies (anti-SWP7, anti-SWP12, anti-SWP26, anti-SWP30) at 4°C for 12 h, then with female hemolymph (BmVg) for 2 h at 4°C; washed three times with PBST; BmVg adhering to spores detected by western blot. Background: Immunoblotting shows a protein as a band on a membrane.

For test [2], the target named is T2, SWP26, native on the surface of N. bombycis spores (N. bombycis (endogenous on spores)) (UniProt B9UJ97).
T2 sequence: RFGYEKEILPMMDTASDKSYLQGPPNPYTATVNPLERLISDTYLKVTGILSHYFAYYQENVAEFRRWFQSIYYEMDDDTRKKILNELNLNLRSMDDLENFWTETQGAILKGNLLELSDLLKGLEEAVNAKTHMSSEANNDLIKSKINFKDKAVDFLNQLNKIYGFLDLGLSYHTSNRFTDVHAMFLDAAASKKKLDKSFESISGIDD
The test is described as above.

For test [3], the target named is T3, SWP30, native on the surface of N. bombycis spores (N. bombycis (endogenous on spores)) (UniProt B3STN5).
T3 sequence: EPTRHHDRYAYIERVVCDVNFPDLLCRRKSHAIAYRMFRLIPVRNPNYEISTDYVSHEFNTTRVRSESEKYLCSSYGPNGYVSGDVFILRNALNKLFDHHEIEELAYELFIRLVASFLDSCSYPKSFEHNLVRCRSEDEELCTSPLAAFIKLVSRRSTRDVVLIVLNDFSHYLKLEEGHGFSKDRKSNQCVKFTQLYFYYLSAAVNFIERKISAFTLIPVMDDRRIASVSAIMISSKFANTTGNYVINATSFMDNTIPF
Described as above.

Test [4] concerns the target His-VWD (His-tagged von Willebrand domain of B. mori vitellogenin) (B. mori) (UniProt Q27309). The test can be described thus: pull-down; His-VWD or His-DUF1943 incubated with MBP and SWPs-MBP proteins, Dynabeads His-Tag Isolation & Pulldown kit; western blot with anti-MBP antibody; both purified.
The target in test [5] is BmVg-VWD (von Willebrand domain of B. mori vitellogenin), yeast two-hybrid fusion (B. mori) (UniProt Q27309). In words: two-hybrid; bait (pGBKT7) and prey (pGADT7) plasmids co-transformed into yeast Y2HGold; screened on SD/-Ade/-His/-Leu/-Trp with X-α-gal (QDO) plates; which partner was bait is not stated.

Results are given in words; binding and its absence hold for the method and conditions named. Binding can be weak; no strength is given. For part of these data: Tags and fused reporters may be left off the sequences shown.

Take “B. mori vitellogenin (BmVg), endogenous in the hemolymph of female pupae (from UniProt Q27309)”: the binding entry in test [1], in test [2] and in test [3] was “binds” throughout.

B1: SWP30-MBP (protein, UniProt B3STN5 20-278)
chain: EPTRHHDRYAYIERVVCDVNFPDLLCRRKSHAIAYRMFRLIPVRNPNYEISTDYVSHEFNTTRVRSESEKYLCSSYGPNGYVSGDVFILRNALNKLFDHHEIEELAYELFIRLVASFLDSCSYPKSFEHNLVRCRSEDEELCTSPLAAFIKLVSRRSTRDVVLIVLNDFSHYLKLEEGHGFSKDRKSNQCVKFTQLYFYYLSAAVNFIERKISAFTLIPVMDDRRIASVSAIMISSKFANTTGNYVINATSFMDNTIPF
Take B1: the binding result in test [4] was “binds”.

B2: N. bombycis spore wall protein SWP26, yeast two-hybrid fusion (protein, UniProt B9UJ97 1-223)
chain: MNIIIFSLMTISFLRARFGYEKEILPMMDTASDKSYLQGPPNPYTATVNPLERLISDTYLKVTGILSHYFAYYQENVAEFRRWFQSIYYEMDDDTRKKILNELNLNLRSMDDLENFWTETQGAILKGNLLELSDLLKGLEEAVNAKTHMSSEANNDLIKSKINFKDKAVDFLNQLNKIYGFLDLGLSYHTSNRFTDVHAMFLDAAASKKKLDKSFESISGIDD
For the molecule B2, the binding result in test [5] is listed as “binds”.

B3: SWP26-MBP (protein, UniProt B9UJ97 17-223)
chain: RFGYEKEILPMMDTASDKSYLQGPPNPYTATVNPLERLISDTYLKVTGILSHYFAYYQENVAEFRRWFQSIYYEMDDDTRKKILNELNLNLRSMDDLENFWTETQGAILKGNLLELSDLLKGLEEAVNAKTHMSSEANNDLIKSKINFKDKAVDFLNQLNKIYGFLDLGLSYHTSNRFTDVHAMFLDAAASKKKLDKSFESISGIDD
B3: in test [4], the binding result is “binds”.

B4: N. bombycis spore wall protein SWP12, yeast two-hybrid fusion (protein, UniProt B3STP6 1-228)
chain: MKDFKKKIIMKISRIEYKHTAFSAEYKDVEKVYKKLRDNMDKVATGINNLMTYEHGGSAMKKIYHGLSMVSSASRMNYFSDADIFEGFARINKDLTDSDLDEGVREVGRKTAEAYENISKAKEKFNEQCGREMEVLMSMKKRAETTDKERENAKIYRYDLEKAKQSNNPEDQEEVDRLSELFENSQTRTIEMMRDFIGADGLQGVLTRVRDLNIEFHQESVKALERTK
As for B4, in test [5], the binding entry was “binds”.

B5: SWP12-MBP (protein, UniProt B3STP6 1-228)
chain: MKDFKKKIIMKISRIEYKHTAFSAEYKDVEKVYKKLRDNMDKVATGINNLMTYEHGGSAMKKIYHGLSMVSSASRMNYFSDADIFEGFARINKDLTDSDLDEGVREVGRKTAEAYENISKAKEKFNEQCGREMEVLMSMKKRAETTDKERENAKIYRYDLEKAKQSNNPEDQEEVDRLSELFENSQTRTIEMMRDFIGADGLQGVLTRVRDLNIEFHQESVKALERTK
For the molecule B5, the binding entry in test [4] is reported as “binds”.

B6: N. bombycis spore wall protein SWP30, yeast two-hybrid fusion (protein, UniProt B3STN5 1-278)
chain: MNILLATASFVLSLGFVKAEPTRHHDRYAYIERVVCDVNFPDLLCRRKSHAIAYRMFRLIPVRNPNYEISTDYVSHEFNTTRVRSESEKYLCSSYGPNGYVSGDVFILRNALNKLFDHHEIEELAYELFIRLVASFLDSCSYPKSFEHNLVRCRSEDEELCTSPLAAFIKLVSRRSTRDVVLIVLNDFSHYLKLEEGHGFSKDRKSNQCVKFTQLYFYYLSAAVNFIERKISAFTLIPVMDDRRIASVSAIMISSKFANTTGNYVINATSFMDNTIPF
As for B6, the binding result in test [5] is “binds”.
